“And” between values parts separate entries of the source, which are not always exact repeats. Equal entries are not always repeated. Hit rate of the full screen: of about 400,000 compounds, about 3,700 (0.93%) were called active. The shares of active, inactive and inconclusive entries below differ from those in the screen. The call rests on the fitted dose curve; in most records, active means well fitted inhibition curve with a large enough effect; inconclusive means small, poorly fitted or top-dose-only effect, or another doubt; inactive means no such curve, though single readings can be large or run the other way. A potency beside an inconclusive call is a rough fit, not a confirmed value.
target: Vitamin D3 receptor (Homo sapiens) (UniProt P11473); experiment: Inhibitors of the vitamin D receptor (VDR): qHTS; settings: VDR-SRC2-3 peptide fluorescence polarization, 2 h; max response, negative = inhibition: hits give low values
Outline: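 After 23 nl compound addition and a short centrifugation, plates sat for 2 hours at ambient temperature; polarization of fluorescence then indicated loss of VDR binding to peptide SRC2-3.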
On the % scale 0 is the no-effect control and ±100 the full control effect; potency means the concentration at half of the fitted maximal effect.

The chains behind the UniProt entries cited, without tags or fusion partners. Where a name states a change or a piece, a line headed by the entry shows the natural chain unless it says otherwise.
UniProt P11473: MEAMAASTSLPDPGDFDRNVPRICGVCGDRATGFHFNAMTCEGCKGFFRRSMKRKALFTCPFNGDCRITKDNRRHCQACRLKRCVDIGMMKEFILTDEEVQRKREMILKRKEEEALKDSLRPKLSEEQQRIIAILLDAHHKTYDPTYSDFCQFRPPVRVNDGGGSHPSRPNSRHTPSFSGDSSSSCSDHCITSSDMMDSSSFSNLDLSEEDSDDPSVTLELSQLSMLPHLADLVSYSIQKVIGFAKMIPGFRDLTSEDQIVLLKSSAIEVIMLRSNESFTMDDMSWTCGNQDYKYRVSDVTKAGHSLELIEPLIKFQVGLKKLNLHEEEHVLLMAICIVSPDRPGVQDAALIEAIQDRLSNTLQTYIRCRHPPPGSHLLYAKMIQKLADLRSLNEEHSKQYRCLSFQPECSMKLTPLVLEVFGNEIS

SMILES	max response, negative = inhibition	Potency
CCOc1cc(C2CC(=O)NC(SCC)=C2C#N)ccc1O (stereo not given)	inactive: 3.75%	
Cc1ccc(S(=O)(=O)Nc2cc3c(C(=O)OCc4ccccc4)c(C)oc3c3ccccc23)c(C)c1	inactive: -8.67%	
CSc1sc2ccccc2[n+]1CCCS(=O)(=O)[O-]		active: 35.5 µM
COc1cccc([C@@H]2Oc3ccc(OC)cc3C(=O)[C@H]2OC(=O)NS(=O)(=O)c2ccc(F)cc2)c1	inactive: -3.96%	
CC(=O)O[C@]1(C(C)=O)CC[C@H]2[C@@H]3C=C(Cl)C4=CC(=O)[C@@H]5C[C@@H]5[C@]4(C)[C@H]3CC[C@@]21C		inconclusive: 89.1 µM [inhibitor, partial curve]
CCOC(=O)C(Sc1nn(C)c(=S)s1)C(C)=O (stereo not given)		inconclusive: 79.4 µM [inhibitor, partial curve, poor fit]
COc1ccc(CC(=O)Nc2ncc([N+](=O)[O-])s2)cc1OC		inconclusive: 89.1 µM [inhibitor, single point]
CCN([C@H](CO)C(C)C)S(=O)(=O)c1ccccc1Br		inconclusive: 56.2 µM [inhibitor, partial curve, poor fit]
CC(=O)c1ccc(NS(=O)(=O)c2ccc(C(C)(C)C)cc2)cc1		inconclusive: 5.62 µM [inhibitor, partial curve, poor fit]
COC(=O)c1ccc(OCC(=O)c2cccc(OC)c2)cc1		inconclusive: 79.4 µM [inhibitor, single point]
COC(=O)C(O)(CC(=O)Nc1cc(OC)c(OC)c(OC)c1)C(F)(F)F (stereo not given)	inactive: 7.17%	
CCOC(=O)Nc1ccc(C(=O)/C=C/c2ccccc2)cc1		inconclusive: 20 µM [inhibitor, full curve, poor fit]
O=C(NNc1ccc([N+](=O)[O-])cc1)c1ccco1	inactive: 7.2%	
CC(Sc1nnnn1C1CCCC1)C(=O)Nc1cccc(S(=O)(=O)N2CCOCC2)c1 (stereo not given)	inactive: 1.41%	
COc1ccc(CCN2C(=O)NC(NC(=O)c3ccccc3OC)(C(F)(F)F)C2=O)cc1OC (stereo not given)		inconclusive: 10 µM [inhibitor, partial curve, poor fit]
CC(=O)c1c(C)[nH]c(C2=NNC(=NC(C)(C)C)SC2)c1C		inconclusive: 70.8 µM [inhibitor, partial curve, poor fit]
Clc1ccc(NC2(c3nnnn3C3CCCCC3)CCCCC2)cc1		inconclusive: 44.7 µM [inhibitor, partial curve]
Cc1cc2c(cc1S(=O)(=O)N1CCN(c3cccc(C(F)(F)F)c3)CC1)OCC(=O)N2		inconclusive: 39.8 µM [inhibitor, partial curve, poor fit]
CN(C)CC(O)Cn1c2ccc(Br)cc2c2cc(Br)ccc21 (stereo not given)		inconclusive: 31.6 µM [inhibitor, single point]
Cc1cc(NC(=O)CCCn2cnc([N+](=O)[O-])n2)no1		inconclusive: 22.4 µM [inhibitor, partial curve, poor fit]

SMILES	max response, negative = inhibition	Potency
CCCCn1c(SCC(=O)c2ccc3c(c2)OCCO3)nnc1-c1ccoc1C		inconclusive: 79.4 µM [inhibitor, single point]
Cc1cc(C)c(NS(=O)(=O)c2cccc3cccnc23)c(C)c1	inactive: 12.1%	
COc1ccccc1[C@@H]1C(c2ccccc2)=NN(c2ccc(Br)cc2)[C@H]1C(=O)N1CCOC1=O	inactive: -4.38% and inactive: -16.6%	
O=C1/C(=C\c2cccc([N+](=O)[O-])c2O)SC(=S)N1Cc1ccccc1		inconclusive: 56.2 µM [inhibitor, partial curve, poor fit]
CC(C)NC(=O)N(C)C[C@H]1Oc2c(NC(=O)Cc3ccccc3)cccc2C(=O)N([C@H](C)CO)C[C@@H]1C		inconclusive: 89.1 µM [inhibitor, single point]
Cc1cc(C)c(S(=O)(=O)NCCSCc2ccco2)c(C)c1		inconclusive: 112 µM [inhibitor, partial curve, poor fit]
Cc1[nH][nH]c(=O)c1C(c1c(C)[nH][nH]c1=O)c1cn(Cc2ccc(Cl)c(Cl)c2)c2ccccc12		inconclusive: 56.2 µM [inhibitor, partial curve, poor fit]
CCCCN(C(=O)CN1CCOCC1)c1c(N)n(CC(C)C)c(=O)[nH]c1=O		inconclusive: 4.47 µM [inhibitor, full curve, poor fit]
COc1cc(/C=C/C(=O)NC2CCCCC2)cc(OC)c1OC		inconclusive: 14.1 µM [inhibitor, partial curve, poor fit]
CC(C)C1=NN2C(=N)CC(=O)N=C2S1		inconclusive: 89.1 µM [inhibitor, single point]
Cc1ccc(C2=CC(c3ccccc3C)n3c(nc4ccccc43)N2)cc1 (stereo not given)	inactive: -11.1%	
O=C1CCCc2c1cc(C(=O)Nc1ccc(Br)cn1)c(=O)n2-c1ccccc1		inconclusive: 20 µM [inhibitor, partial curve, poor fit]
O=C(CSc1ccccc1C(=O)O)c1ccc([N+](=O)[O-])cc1		inconclusive: 25.1 µM [inhibitor, single point]
Cc1cn2c(=O)cc(COc3cccc(NC(=O)c4ccc(C(C)(C)C)cc4)c3)nc2s1	inactive: -7.15%	
CCCCN=C1CC(C)(C)CC(=O)/C1=C(/O)CCC	inactive: -2.67%	
CCn1cc(CN2CCCC(C(=O)Nc3cccc(-n4cccn4)c3)C2)c(C)n1 (stereo not given)		inconclusive: 100 µM [inhibitor, single point]
CC1(C)Cc2c(sc(NC(=O)C(=O)NCCCN3CCOCC3)c2C#N)CO1	inactive: -5.32%	
CCCn1c(=O)c(C(=O)NCc2ccccc2)c(O)c2ccccc21		inconclusive: 15.8 µM [inhibitor, partial curve, poor fit]
Cc1cccc(Cn2cc(/C=C/[N+](=O)[O-])c3ccccc32)c1		inconclusive: 17.8 µM [inhibitor, full curve, poor fit]
Fc1ccc(N2CCN(c3nc4ccccc4c4nc(-c5cccnc5)nn34)CC2)cc1	inactive: -0.364%	

Record cards (already shown):
O=C(NNc1ccc([N+](=O)[O-])cc1)c1ccco1 in the list: max response, negative = inhibition: inactive: 7.2%
Cc1cc(NC(=O)CCCn2cnc([N+](=O)[O-])n2)no1 in the list: Potency: inconclusive: 22.4 µM [inhibitor, partial curve, poor fit]
Cc1cc(C)c(NS(=O)(=O)c2cccc3cccnc23)c(C)c1 in the list: max response, negative = inhibition: inactive: 12.1%

— PubChem BioAssay AID504847 (National Center for Advancing Translational Sciences (NCATS), 2011)
